Laboratory results: patent US11672802B2, “Induction of immune tolerance by using methotrexate” (Genzyme Corporation, priority 2011, dated 2023)
At least one compound was matched to its structure with a doubt left.

Tested on: allogeneic heart transplant
Assay: Murine allogeneic heart transplant model, graft survival
Parameters: species or system mice (C57BL/6 donor, Balb/c recipient)
Conditions: mouse, in vivo
Experimental: Polyclonal antibody mATG was administered as an intraperitoneal injection of 5 mg/kg every four weeks or as two 20 mg/kg doses given four days apart when in the transplant setting with the first dose given on the day of transplant (day 0).
C57BL/6 and BALB/c mice were obtained from Charles River (Kingston, N.Y. or Raleigh, N.C.) and used in these experiments between 8 and 13 weeks of age. The donor allogenic C57BL/6 mice were first anesthetized with an intraperitoneal injection of Ketamine (Fort Dodge Animal Health/Pfizer, Fort Dodge, Iowa) and Xylazine (Lloyd, Shenandoah, Iowa) and a median sternotomy was performed. […] The ascending aorta and pulmonary artery were then transected, the graft removed from the donor and the heart was stored in ice-cold saline until engraftment. A recipient mouse (Balb/c) was similarly anesthetized and prepped as described above for donor mice, except that the abdominal cavity was opened. […] After hemostasis was confirmed, the abdominal muscle was closed with a running 5-O Vicryl suture (Ethicon, Johnson & Johnson, Somerville, N.J.), and the skin closed with running 5-0 Ethilon suture (Ethicon). Standard post-op pain assessment and management was performed. Grafts were assessed by palpation 5-7 times per week for the first 30 day, and then 3-4 times per week until the end of the study.

| SMILES | graft survival when co-administered with mATG |
| --- | --- |
| C[C@@H]1C[C@H]2[C@@H]3CCC4=CC(=O)C=C[C@]4(C)[C@@]3(F)[C@@H](O)C[C@]2(C)[C@@]1(O)C(=O)CO [dexamethasone] | failed to significantly prolong graft survival |
| CO[C@H]1C[C@@H]2CC[C@@H](C)[C@@](O)(O2)C(=O)C(=O)N2CCCC[C@H]2C(=O)O[C@H]([C@H](C)C[C@@H]2CC[C@@H](O)[C@H](OC)C2)CC(=O)[C@H](C)/C=C(\C)[C@@H](O)[C@@H](OC)C(=O)[C@H](C)C[C@H](C)/C=C/C=C/C=C/1C [rapamycin] | failed to significantly prolong graft survival |
